Experimental data reported in article PMC10645886.
Results are given in words; binding and its absence hold for the method and conditions named. Binding seen in cells or lysates may run through a third protein. Some entries that bind do so weakly or less than the wild type.

The chains behind the UniProt entries cited, without tags or fusion partners. Residues count along the entry.
UniProt P78504, residues 34-1218: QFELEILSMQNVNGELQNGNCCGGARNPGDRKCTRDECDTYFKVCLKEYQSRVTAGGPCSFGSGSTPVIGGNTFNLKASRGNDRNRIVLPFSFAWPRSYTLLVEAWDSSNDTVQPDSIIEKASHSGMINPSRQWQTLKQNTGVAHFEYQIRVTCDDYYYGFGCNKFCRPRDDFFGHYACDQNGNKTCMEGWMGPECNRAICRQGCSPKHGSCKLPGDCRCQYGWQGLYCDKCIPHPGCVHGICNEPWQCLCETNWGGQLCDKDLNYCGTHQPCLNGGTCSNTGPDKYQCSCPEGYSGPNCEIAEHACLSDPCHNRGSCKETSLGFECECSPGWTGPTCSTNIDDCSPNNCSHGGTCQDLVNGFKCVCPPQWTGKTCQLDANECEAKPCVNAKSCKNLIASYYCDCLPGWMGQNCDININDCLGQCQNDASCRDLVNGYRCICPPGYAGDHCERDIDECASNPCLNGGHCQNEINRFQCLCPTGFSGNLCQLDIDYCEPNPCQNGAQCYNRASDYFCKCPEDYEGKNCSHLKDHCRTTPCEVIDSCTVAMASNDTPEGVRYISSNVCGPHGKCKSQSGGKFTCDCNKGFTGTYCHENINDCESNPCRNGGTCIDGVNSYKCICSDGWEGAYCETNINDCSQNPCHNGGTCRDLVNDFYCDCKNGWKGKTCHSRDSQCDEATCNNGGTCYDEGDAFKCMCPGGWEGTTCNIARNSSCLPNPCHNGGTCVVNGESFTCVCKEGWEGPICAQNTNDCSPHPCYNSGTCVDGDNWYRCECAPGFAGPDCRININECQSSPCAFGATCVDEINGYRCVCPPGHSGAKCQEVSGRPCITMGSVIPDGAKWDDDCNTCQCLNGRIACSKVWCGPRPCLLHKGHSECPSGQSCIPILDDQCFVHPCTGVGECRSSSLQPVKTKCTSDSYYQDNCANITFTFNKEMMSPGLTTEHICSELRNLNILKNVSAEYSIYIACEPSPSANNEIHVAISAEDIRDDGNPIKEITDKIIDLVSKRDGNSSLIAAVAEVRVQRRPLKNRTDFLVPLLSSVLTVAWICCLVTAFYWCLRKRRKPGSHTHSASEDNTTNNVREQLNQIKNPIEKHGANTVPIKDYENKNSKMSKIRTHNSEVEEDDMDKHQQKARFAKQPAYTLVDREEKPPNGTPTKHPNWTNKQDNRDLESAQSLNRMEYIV
UniProt Q04206: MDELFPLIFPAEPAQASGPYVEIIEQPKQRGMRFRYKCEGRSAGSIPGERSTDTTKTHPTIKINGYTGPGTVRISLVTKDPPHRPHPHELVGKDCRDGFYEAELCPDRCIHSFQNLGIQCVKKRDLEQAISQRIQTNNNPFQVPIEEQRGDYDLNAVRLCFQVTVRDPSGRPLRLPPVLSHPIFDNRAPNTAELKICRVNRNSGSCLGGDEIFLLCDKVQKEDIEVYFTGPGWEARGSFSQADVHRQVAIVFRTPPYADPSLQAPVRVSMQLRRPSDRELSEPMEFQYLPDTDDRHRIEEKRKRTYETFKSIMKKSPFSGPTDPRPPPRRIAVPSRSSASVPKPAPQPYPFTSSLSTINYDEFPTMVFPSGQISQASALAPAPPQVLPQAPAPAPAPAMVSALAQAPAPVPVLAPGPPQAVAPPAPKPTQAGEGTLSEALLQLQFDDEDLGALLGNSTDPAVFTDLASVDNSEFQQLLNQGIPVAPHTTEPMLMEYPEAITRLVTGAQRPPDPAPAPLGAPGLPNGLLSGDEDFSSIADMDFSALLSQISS
UniProt P24821, residues 23-2201: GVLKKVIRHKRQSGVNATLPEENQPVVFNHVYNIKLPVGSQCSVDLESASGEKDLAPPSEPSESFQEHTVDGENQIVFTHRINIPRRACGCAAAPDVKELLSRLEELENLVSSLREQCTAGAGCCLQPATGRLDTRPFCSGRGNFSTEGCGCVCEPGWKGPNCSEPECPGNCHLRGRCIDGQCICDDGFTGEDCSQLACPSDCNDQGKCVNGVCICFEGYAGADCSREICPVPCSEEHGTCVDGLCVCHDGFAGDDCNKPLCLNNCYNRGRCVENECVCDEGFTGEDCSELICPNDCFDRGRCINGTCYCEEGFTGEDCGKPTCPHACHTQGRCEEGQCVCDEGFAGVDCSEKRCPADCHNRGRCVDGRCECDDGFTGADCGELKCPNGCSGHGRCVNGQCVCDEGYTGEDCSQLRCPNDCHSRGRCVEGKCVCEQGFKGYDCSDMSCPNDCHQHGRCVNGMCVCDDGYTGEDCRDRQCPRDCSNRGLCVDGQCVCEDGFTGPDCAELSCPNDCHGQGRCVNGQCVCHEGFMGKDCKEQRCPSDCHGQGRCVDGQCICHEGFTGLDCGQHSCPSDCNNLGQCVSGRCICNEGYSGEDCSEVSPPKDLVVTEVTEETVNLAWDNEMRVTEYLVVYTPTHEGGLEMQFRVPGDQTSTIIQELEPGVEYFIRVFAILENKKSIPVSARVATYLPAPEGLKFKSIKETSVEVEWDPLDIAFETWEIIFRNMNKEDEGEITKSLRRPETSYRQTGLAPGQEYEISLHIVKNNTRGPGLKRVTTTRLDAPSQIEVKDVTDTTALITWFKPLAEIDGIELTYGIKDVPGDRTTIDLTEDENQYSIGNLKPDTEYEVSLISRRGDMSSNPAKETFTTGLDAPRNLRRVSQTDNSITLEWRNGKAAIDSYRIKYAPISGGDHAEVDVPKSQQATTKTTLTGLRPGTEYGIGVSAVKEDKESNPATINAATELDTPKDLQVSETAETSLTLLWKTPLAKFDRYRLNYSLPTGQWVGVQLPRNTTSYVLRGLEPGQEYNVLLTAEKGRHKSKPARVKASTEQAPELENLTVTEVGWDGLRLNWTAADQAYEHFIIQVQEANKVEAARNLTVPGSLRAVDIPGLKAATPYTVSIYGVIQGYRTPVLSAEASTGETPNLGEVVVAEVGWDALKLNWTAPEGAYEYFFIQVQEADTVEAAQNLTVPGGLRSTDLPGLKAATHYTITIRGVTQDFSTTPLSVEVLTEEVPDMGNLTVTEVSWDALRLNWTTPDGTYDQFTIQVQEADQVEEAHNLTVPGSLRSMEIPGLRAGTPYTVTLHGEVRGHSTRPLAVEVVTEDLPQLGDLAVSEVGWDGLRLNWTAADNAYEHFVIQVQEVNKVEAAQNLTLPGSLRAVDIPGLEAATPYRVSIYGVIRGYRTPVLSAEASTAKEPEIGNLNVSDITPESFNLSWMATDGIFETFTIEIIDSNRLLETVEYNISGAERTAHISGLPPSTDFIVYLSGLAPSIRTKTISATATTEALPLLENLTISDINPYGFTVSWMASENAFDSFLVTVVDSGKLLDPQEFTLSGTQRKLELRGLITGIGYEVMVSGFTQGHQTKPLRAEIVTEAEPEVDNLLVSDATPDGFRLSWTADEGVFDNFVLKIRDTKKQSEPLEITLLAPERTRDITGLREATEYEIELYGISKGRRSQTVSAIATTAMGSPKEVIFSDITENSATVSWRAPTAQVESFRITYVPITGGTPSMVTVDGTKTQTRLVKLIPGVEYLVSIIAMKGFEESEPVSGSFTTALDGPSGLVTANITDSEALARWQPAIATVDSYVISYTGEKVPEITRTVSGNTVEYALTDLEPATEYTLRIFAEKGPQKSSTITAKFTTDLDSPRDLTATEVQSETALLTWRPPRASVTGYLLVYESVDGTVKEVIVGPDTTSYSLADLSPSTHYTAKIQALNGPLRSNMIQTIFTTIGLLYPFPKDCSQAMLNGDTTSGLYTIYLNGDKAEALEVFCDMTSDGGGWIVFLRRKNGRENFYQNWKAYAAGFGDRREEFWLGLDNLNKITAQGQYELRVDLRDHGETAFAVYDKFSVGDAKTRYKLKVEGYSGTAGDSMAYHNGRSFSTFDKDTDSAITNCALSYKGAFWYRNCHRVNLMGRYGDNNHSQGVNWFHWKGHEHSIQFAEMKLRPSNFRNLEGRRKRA

B1: ITGA6 (protein, UniProt P23229 24-1130)
chain: FNLDTREDNVIRKYGDPGSLFGFSLAMHWQLQPEDKRLLLVGAPRAEALPLQRANRTGGLYSCDITARGPCTRIEFDNDADPTSESKEDQWMGVTVQSQGPGGKVVTCAHRYEKRQHVNTKQESRDIFGRCYVLSQNLRIEDDMDGGDWSFCDGRLRGHEKFGSCQQGVAATFTKDFHYIVFGAPGTYNWKGIVRVEQKNNTFFDMNIFEDGPYEVGGETEHDESLVPVPANSYLGLLFLTSVSYTDPDQFVYKTRPPREQPDTFPDVMMNSYLGFSLDSGKGIVSKDEITFVSGAPRANHSGAVVLLKRDMKSAHLLPEHIFDGEGLASSFGYDVAVVDLNKDGWQDIVIGAPQYFDRDGEVGGAVYVYMNQQGRWNNVKPIRLNGTKDSMFGIAVKNIGDINQDGYPDIAVGAPYDDLGKVFIYHGSANGINTKPTQVLKGISPYFGYSIAGNMDLDRNSYPDVAVGSLSDSVTIFRSRPVINIQKTITVTPNRIDLRQKTACGAPSGICLQVKSCFEYTANPAGYNPSISIVGTLEAEKERRKSGLSSRVQFRNQGSEPKYTQELTLKRQKQKVCMEETLWLQDNIRDKLRPIPITASVEIQEPSSRRRVNSLPEVLPILNSDEPKTAHIDVHFLKEGCGDDNVCNSNLKLEYKFCTREGNQDKFSYLPIQKGVPELVLKDQKDIALEITVTNSPSNPRNPTKDGDDAHEAKLIATFPDTLTYSAYRELRAFPEKQLSCVANQNGSQADCELGNPFKRNSNVTFYLVLSTTEVTFDTPDLDINLKLETTSNQDNLAPITAKAKVVIELLLSVSGVAKPSQVYFGGTVVGEQAMKSEDEVGSLIEYEFRVINLGKPLTNLGTATLNIQWPKEISNGKWLLYLVKVESKGLEKVTCEPQKEINSLNLTESHNSRKKREITEKQIDDNRKFSLFAERKYQTLNCSVNVNCVNIRCPLRGLDSKASLILRSRLWNSTFLEEYSKLNYLDILMRAFIDVTAAAENIRLPNAGTQVRVTVFPSKTVAQYSGVPWWIILVAILAGILMLALLVFILWKCGFFKRSRYDDSVPRYHAVRIRKEEREIKDEKYIDNLEKKQWITKWNENESYS
B2: ABCF2 (protein, UniProt Q9UG63 1-623)
chain: MPSDLAKKKAAKKKEAAKARQRPRKGHEENGDVVTEPQVAEKNEANGRETTEVDLLTKELEDFEMKKAAARAVTGVLASHPNSTDVHIINLSLTFHGQELLSDTKLELNSGRRYGLIGLNGIGKSMLLSAIGKREVPIPEHIDIYHLTREMPPSDKTPLHCVMEVDTERAMLEKEAERLAHEDAECEKLMELYERLEELDADKAEMRASRILHGLGFTPAMQRKKLKDFSGGWRMRVALARALFIRPFMLLLDEPTNHLDLDACVWLEEELKTFKRILVLVSHSQDFLNGVCTNIIHMHNKKLKYYTGNYDQYVKTRLELEENQMKRFHWEQDQIAHMKNYIARFGHGSAKLARQAQSKEKTLQKMMASGLTERVVSDKTLSFYFPPCGKIPPPVIMVQNVSFKYTKDGPCIYNNLEFGIDLDTRVALVGPNGAGKSTLLKLLTGELLPTDGMIRKHSHVKIGRYHQHLQEQLDLDLSPLEYMMKCYPEIKEKEEMRKIIGRYGLTGKQQVSPIRNLSDGQKCRVCLAWLAWQNPHMLFLDEPTNHLDIETIDALADAINEFEGGMMLVSHDFRLIQQVAQEIWVCEKQTITKWPGDILAYKEHLKSKLVDEEPQLTKRTHNV
B3: RHOV (protein, UniProt Q96L33 1-236)
chain: MPPRELSEAEPPPLRAPTPPPRRRSAPPELGIKCVLVGDGAVGKSSLIVSYTCNGYPARYRPTALDTFSVQVLVDGAPVRIELWDTAGQEDFDRLRSLCYPDTDVFLACFSVVQPSSFQNITEKWLPEIRTHNPQAPVLLVGTQADLRDDVNVLIQLDQGGREGPVPQPQAQGLAEKIRACCYLECSALTQKNLKEVFDSAILSAIEHKARLEKKLNAKGVRTLSRCRWKKFFCFV
B4: SLC16A3 (protein, UniProt O15427 1-465)
chain: MGGAVVDEGPTGVKAPDGGWGWAVLFGCFVITGFSYAFPKAVSVFFKELIQEFGIGYSDTAWISSILLAMLYGTGPLCSVCVNRFGCRPVMLVGGLFASLGMVAASFCRSIIQVYLTTGVITGLGLALNFQPSLIMLNRYFSKRRPMANGLAAAGSPVFLCALSPLGQLLQDRYGWRGGFLILGGLLLNCCVCAALMRPLVVTAQPGSGPPRPSRRLLDLSVFRDRGFVLYAVAASVMVLGLFVPPVFVVSYAKDLGVPDTKAAFLLTILGFIDIFARPAAGFVAGLGKVRPYSVYLFSFSMFFNGLADLAGSTAGDYGGLVVFCIFFGISYGMVGALQFEVLMAIVGTHKFSSAIGLVLLMEAVAVLVGPPSGGKLLDATHVYMYVFILAGAEVLTSSLILLLGNFFCIRKKPKEPQPEVAAAEEEKLHKPPADSGVDLREVEHFLKAEPEKNGEVVHTPETSV

Each molecule was assayed against T1, protein tyrosine phosphatase 1B (PTP1B) (human (endogenous in U251 and KM12SM)) (UniProt P18031) (assay: co-IP; PTP1B immunoprecipitation and Western blot of associated proteins in U251 GBM and KM12SM CRC cells).
T1 sequence: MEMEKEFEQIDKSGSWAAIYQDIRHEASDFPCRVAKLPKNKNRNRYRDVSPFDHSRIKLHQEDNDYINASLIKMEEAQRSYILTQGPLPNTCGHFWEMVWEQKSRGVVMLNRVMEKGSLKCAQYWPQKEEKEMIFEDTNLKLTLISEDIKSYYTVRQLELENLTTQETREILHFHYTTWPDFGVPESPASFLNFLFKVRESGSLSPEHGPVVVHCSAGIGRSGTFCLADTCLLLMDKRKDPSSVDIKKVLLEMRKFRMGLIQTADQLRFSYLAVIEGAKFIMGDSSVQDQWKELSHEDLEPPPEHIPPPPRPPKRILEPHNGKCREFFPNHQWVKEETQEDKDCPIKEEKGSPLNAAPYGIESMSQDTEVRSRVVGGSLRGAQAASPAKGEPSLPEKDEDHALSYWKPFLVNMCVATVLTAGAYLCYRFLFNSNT
With JAG1 (from UniProt P78504 34-1218) the binding was “binds”.
“NF-κB p65 subunit (RELA) (from UniProt Q04206 1-551)” was tested, and the binding was “binds”.
For “Tenascin-C (TNC) (from UniProt P24821 23-2201)”, the binding was “binds”.
For B1, the binding was “binds”.
For B2, the binding was “binds”.
With B3 the binding was “binds”.
With B4 the binding was “binds”.
